PubChem BioAssay AID1259425, University of Nebraska Medical Center, 2018

Aim: 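Find knockdowns that reproduce the gene expression pattern seen when KSR1 is lost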 (primary screen)
System: HCT116 human colon cancer cells
Reagent: siRNA pool against human genes, 50 nM siRNA
Read-out: 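mRNA of six signature genes measured together by branched-DNA assay after 50 nM siRNA pool, blank removed, divided by geometric mean of two housekeeping genes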
Reading the numbers: BNIP3L mRNA: higher = more BNIP3L transcript after knockdown
Shown is an unselected part of about 14,000 deposited reagents. Further read-outs or replicates are left out here. Not given: the time to read-out.

gene knocked down | BNIP3L mRNA, set 1
PRPF38A (pre-mRNA processing factor 38A) | 0.327
HLTF (helicase like transcription factor) | 0.0718
NODAL (nodal growth differentiation factor) | 0.147
PITHD1 (PITH domain containing 1) | 0.123
CRELD1 (CRELD disulfide isomerase 1) | 0.19
ACSBG1 (acyl-CoA synthetase bubblegum family member 1) | 0.146
CNOT6L (CCR4-NOT transcription complex subunit 6 like) | 0.1
SLC25A18 | 0.126
TMEM186 (transmembrane protein 186) | 0.461
ATP5MG (ATP synthase membrane subunit g) | 0.0511
PRKD2 (protein kinase D2) | 0.105
CTSF (cathepsin F) | 0.285
ABCF3 (ATP binding cassette subfamily F member 3) | 0.489
DGCR6 (DiGeorge syndrome critical region gene 6) | 0.146
AP2A2 (adaptor related protein complex 2 subunit alpha 2) | 0.121
DBF4 (DBF4-CDC7 kinase regulatory subunit) | 0.197
DCC (DCC netrin 1 receptor) | 0.07
DARS2 (aspartyl-tRNA synthetase 2, mitochondrial) | 0.0606
ZYG11B (zyg-11 family member B, cell cycle regulator) | 0.156
NUDT18 (nudix hydrolase 18) | 0.163

3 consecutive reagents from above, for reference:
gene knocked down | BNIP3L mRNA, set 1
TMEM186 (transmembrane protein 186) | 0.461
ATP5MG (ATP synthase membrane subunit g) | 0.0511
PRKD2 (protein kinase D2) | 0.105
